These are yes or no findings as the source states them, for the method shown. Binding seen in cells or lysates may run through a third protein. Some results given as binding are weak or reduced against the parent protein; the word gives no strength. For some assays here: Tags and fused reporters may be left off the sequences shown.

Assay [1] concerns the target T1, HA-PIAS3 (full-length human PIAS3) (human) (UniProt Q9Y6X2).
T1 sequence: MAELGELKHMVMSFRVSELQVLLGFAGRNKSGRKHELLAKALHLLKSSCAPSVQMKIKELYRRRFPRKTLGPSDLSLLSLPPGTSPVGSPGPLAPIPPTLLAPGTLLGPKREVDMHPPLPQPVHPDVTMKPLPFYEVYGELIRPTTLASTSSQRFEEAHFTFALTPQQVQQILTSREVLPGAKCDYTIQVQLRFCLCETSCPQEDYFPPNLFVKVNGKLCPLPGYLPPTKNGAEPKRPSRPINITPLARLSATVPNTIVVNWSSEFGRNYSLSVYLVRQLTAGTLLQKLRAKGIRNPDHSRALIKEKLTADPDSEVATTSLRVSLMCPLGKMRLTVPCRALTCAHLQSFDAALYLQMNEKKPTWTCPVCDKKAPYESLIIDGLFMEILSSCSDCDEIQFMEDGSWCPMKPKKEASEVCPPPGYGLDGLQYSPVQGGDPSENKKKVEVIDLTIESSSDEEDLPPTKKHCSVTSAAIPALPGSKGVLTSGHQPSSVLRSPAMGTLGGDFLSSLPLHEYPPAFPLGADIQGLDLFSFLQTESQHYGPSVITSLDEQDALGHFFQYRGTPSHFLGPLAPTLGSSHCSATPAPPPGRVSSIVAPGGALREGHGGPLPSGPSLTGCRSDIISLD
Description: co-IP; 293T cells transiently transfected with expression plasmids for 48 h; lysates in RIPA buffer; IP with the indicated antibodies (anti-Flag, anti-HA), western blot. In general terms: A western blot detects proteins with antibodies after separation by electrophoresis.

Assay [2] addresses T2, Flag-Smad6-NLS (nuclear-forced full-length human Smad6) (human) (UniProt O43541).
T2 sequence: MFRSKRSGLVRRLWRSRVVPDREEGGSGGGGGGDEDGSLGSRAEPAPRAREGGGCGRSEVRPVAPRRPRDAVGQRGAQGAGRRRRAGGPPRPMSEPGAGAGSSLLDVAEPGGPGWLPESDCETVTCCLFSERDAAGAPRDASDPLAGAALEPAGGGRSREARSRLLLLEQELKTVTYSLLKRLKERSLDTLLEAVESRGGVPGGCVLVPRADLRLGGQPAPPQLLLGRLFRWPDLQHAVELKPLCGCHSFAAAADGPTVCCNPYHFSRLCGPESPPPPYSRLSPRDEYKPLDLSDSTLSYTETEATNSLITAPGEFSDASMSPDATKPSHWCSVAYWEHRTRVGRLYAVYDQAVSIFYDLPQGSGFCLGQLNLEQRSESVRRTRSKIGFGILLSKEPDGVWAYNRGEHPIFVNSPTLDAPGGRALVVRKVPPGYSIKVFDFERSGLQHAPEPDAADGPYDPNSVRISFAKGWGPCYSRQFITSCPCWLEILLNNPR
The description is as above.

Assay [3] deals with TAT-MH2-NLS (cell-penetrating Smad6 MH2 protein) (human | HIV) (UniProt O43541). Description: co-IP; 293T cells transfected with HA-PIAS3 and treated with 1.0 ug/ml purified TAT-MH2-NLS; IP with anti-His antibody; only the target purified.
Assay [4] addresses T3, GST-Smad6 fusion protein (human) (UniProt O43541).
T3 sequence: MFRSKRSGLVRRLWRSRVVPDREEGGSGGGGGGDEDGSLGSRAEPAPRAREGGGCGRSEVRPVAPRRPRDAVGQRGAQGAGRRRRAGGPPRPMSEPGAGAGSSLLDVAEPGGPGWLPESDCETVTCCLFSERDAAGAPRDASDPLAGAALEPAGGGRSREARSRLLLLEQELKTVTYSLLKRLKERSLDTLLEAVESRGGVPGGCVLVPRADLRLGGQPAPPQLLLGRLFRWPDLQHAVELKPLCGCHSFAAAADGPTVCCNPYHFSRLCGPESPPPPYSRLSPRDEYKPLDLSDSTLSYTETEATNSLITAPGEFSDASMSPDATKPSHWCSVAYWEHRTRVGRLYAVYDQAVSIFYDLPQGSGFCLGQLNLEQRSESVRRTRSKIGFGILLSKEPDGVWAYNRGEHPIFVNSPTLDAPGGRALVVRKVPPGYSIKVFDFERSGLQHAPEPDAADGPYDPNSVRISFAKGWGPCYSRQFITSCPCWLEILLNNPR
The experiment in a line: pull-down; GST fusion protein bound to glutathione-agarose beads, incubated 2 h with total lysate of transfected 293T cells; washed three times with GST lysis buffer; western blot; only the target purified.

For assay [5], the target named is T4, PIAS3, endogenous in glioma cells (human (endogenous in glioma cells)) (UniProt Q9Y6X2).
T4 sequence: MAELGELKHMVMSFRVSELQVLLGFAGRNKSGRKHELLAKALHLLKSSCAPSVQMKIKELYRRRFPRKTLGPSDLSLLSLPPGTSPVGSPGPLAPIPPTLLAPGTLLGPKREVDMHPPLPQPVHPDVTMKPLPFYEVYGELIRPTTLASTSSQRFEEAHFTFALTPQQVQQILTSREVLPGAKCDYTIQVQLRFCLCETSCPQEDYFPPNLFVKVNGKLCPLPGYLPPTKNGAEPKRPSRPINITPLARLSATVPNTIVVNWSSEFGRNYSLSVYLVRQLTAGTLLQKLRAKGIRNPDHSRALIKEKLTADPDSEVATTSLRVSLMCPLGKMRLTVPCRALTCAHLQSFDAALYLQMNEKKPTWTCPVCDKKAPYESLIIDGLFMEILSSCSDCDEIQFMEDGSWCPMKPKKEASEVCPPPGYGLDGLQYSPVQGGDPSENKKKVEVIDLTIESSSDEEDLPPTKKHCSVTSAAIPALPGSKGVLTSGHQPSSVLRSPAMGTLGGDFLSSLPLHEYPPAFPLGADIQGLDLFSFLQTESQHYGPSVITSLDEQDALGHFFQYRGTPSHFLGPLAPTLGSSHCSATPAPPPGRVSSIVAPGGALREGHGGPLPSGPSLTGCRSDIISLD
Description: co-IP; endogenous proteins in glioma cells (Supplementary Figure 11).

A further assay concerns the target T5, GST-PIAS3 (human) (UniProt Q9Y6X2).
T5 sequence: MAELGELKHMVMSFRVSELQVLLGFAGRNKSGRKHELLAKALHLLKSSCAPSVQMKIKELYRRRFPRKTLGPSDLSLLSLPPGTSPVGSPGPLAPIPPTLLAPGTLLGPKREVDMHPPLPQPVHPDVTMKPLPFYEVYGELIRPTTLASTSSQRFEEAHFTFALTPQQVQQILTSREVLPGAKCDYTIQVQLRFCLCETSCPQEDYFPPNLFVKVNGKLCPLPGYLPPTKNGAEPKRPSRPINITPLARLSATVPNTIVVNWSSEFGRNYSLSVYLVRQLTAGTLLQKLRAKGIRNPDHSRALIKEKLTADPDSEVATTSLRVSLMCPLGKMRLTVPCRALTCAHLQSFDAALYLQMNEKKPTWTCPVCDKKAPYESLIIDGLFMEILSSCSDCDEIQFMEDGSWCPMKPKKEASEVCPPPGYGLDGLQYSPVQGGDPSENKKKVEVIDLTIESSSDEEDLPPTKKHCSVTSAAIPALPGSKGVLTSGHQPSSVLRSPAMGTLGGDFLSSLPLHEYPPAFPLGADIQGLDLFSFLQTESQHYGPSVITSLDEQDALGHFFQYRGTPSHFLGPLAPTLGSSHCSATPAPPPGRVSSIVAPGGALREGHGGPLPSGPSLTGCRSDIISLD
The experiment in a line: pull-down; GST fusion protein bound to glutathione-agarose beads, incubated 2 h with total lysate of transfected 293T cells; washed three times with GST lysis buffer; western blot; only the target purified.

B1: Flag-tagged nuclear Smad6 with MH2 deletion (dMH2, residues 1-331) (domain or fragment, UniProt O43541 1-331)
chain: MFRSKRSGLVRRLWRSRVVPDREEGGSGGGGGGDEDGSLGSRAEPAPRAREGGGCGRSEVRPVAPRRPRDAVGQRGAQGAGRRRRAGGPPRPMSEPGAGAGSSLLDVAEPGGPGWLPESDCETVTCCLFSERDAAGAPRDASDPLAGAALEPAGGGRSREARSRLLLLEQELKTVTYSLLKRLKERSLDTLLEAVESRGGVPGGCVLVPRADLRLGGQPAPPQLLLGRLFRWPDLQHAVELKPLCGCHSFAAAADGPTVCCNPYHFSRLCGPESPPPPYSRLSPRDEYKPLDLSDSTLSYTETEATNSLITAPGEFSDASMSPDATKPSHW
For B1, the binding entry in assay [1] is reported as “no binding”.

B2: Flag-tagged nuclear Smad6 with MH1 deletion (dMH1, residues 182-496) (domain or fragment, UniProt O43541 182-496)
chain: RLKERSLDTLLEAVESRGGVPGGCVLVPRADLRLGGQPAPPQLLLGRLFRWPDLQHAVELKPLCGCHSFAAAADGPTVCCNPYHFSRLCGPESPPPPYSRLSPRDEYKPLDLSDSTLSYTETEATNSLITAPGEFSDASMSPDATKPSHWCSVAYWEHRTRVGRLYAVYDQAVSIFYDLPQGSGFCLGQLNLEQRSESVRRTRSKIGFGILLSKEPDGVWAYNRGEHPIFVNSPTLDAPGGRALVVRKVPPGYSIKVFDFERSGLQHAPEPDAADGPYDPNSVRISFAKGWGPCYSRQFITSCPCWLEILLNNPR
B2: the binding entry in assay [1] is on record as “binds”.

B3: HA-PIAS3 (full-length human PIAS3) (protein, UniProt Q9Y6X2 1-628)
chain: MAELGELKHMVMSFRVSELQVLLGFAGRNKSGRKHELLAKALHLLKSSCAPSVQMKIKELYRRRFPRKTLGPSDLSLLSLPPGTSPVGSPGPLAPIPPTLLAPGTLLGPKREVDMHPPLPQPVHPDVTMKPLPFYEVYGELIRPTTLASTSSQRFEEAHFTFALTPQQVQQILTSREVLPGAKCDYTIQVQLRFCLCETSCPQEDYFPPNLFVKVNGKLCPLPGYLPPTKNGAEPKRPSRPINITPLARLSATVPNTIVVNWSSEFGRNYSLSVYLVRQLTAGTLLQKLRAKGIRNPDHSRALIKEKLTADPDSEVATTSLRVSLMCPLGKMRLTVPCRALTCAHLQSFDAALYLQMNEKKPTWTCPVCDKKAPYESLIIDGLFMEILSSCSDCDEIQFMEDGSWCPMKPKKEASEVCPPPGYGLDGLQYSPVQGGDPSENKKKVEVIDLTIESSSDEEDLPPTKKHCSVTSAAIPALPGSKGVLTSGHQPSSVLRSPAMGTLGGDFLSSLPLHEYPPAFPLGADIQGLDLFSFLQTESQHYGPSVITSLDEQDALGHFFQYRGTPSHFLGPLAPTLGSSHCSATPAPPPGRVSSIVAPGGALREGHGGPLPSGPSLTGCRSDIISLD
As to B3, the binding result in assay [2], in assay [3] and in assay [4] was “binds” each time.

B4: Smad6, endogenous in glioma cells (protein, UniProt O43541 1-496)
chain: MFRSKRSGLVRRLWRSRVVPDREEGGSGGGGGGDEDGSLGSRAEPAPRAREGGGCGRSEVRPVAPRRPRDAVGQRGAQGAGRRRRAGGPPRPMSEPGAGAGSSLLDVAEPGGPGWLPESDCETVTCCLFSERDAAGAPRDASDPLAGAALEPAGGGRSREARSRLLLLEQELKTVTYSLLKRLKERSLDTLLEAVESRGGVPGGCVLVPRADLRLGGQPAPPQLLLGRLFRWPDLQHAVELKPLCGCHSFAAAADGPTVCCNPYHFSRLCGPESPPPPYSRLSPRDEYKPLDLSDSTLSYTETEATNSLITAPGEFSDASMSPDATKPSHWCSVAYWEHRTRVGRLYAVYDQAVSIFYDLPQGSGFCLGQLNLEQRSESVRRTRSKIGFGILLSKEPDGVWAYNRGEHPIFVNSPTLDAPGGRALVVRKVPPGYSIKVFDFERSGLQHAPEPDAADGPYDPNSVRISFAKGWGPCYSRQFITSCPCWLEILLNNPR
In the case of B4, in assay [5], the binding result was “binds”.

B5: Flag-Smad6-NLS (nuclear-forced full-length human Smad6) (protein, UniProt O43541 1-496)
chain: MFRSKRSGLVRRLWRSRVVPDREEGGSGGGGGGDEDGSLGSRAEPAPRAREGGGCGRSEVRPVAPRRPRDAVGQRGAQGAGRRRRAGGPPRPMSEPGAGAGSSLLDVAEPGGPGWLPESDCETVTCCLFSERDAAGAPRDASDPLAGAALEPAGGGRSREARSRLLLLEQELKTVTYSLLKRLKERSLDTLLEAVESRGGVPGGCVLVPRADLRLGGQPAPPQLLLGRLFRWPDLQHAVELKPLCGCHSFAAAADGPTVCCNPYHFSRLCGPESPPPPYSRLSPRDEYKPLDLSDSTLSYTETEATNSLITAPGEFSDASMSPDATKPSHWCSVAYWEHRTRVGRLYAVYDQAVSIFYDLPQGSGFCLGQLNLEQRSESVRRTRSKIGFGILLSKEPDGVWAYNRGEHPIFVNSPTLDAPGGRALVVRKVPPGYSIKVFDFERSGLQHAPEPDAADGPYDPNSVRISFAKGWGPCYSRQFITSCPCWLEILLNNPR
In the case of B5, the binding result (in assay [1]; with GST-PIAS3 (human)) was “binds” in each case.

The values above are taken from PMC6021382.
